Measurements reported in PubChem BioAssay AID686938 (Drosophila RNAi Screening Center, 2013).
Purpose: 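Looking for CRAC channel components and the factors controlling them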 (primary screen). Cell system: Drosophila S2R+ cells. Knock-down reagent: long dsRNA against Drosophila genes, about 0.25 µg dsRNA per well, roughly 10,000 cells. Timing: 5 days of knock-down before the calcium assay. Conditions: thapsigargin (SERCA pump blocker) to empty calcium stores; entry signal taken 4 min after adding it. Detection: 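Per-well fluo-4 fluorescence in two replicates, unnormalised, measured in resting cells and 4 min after store depletion by the SERCA blocker thapsigargin; ratio of the two present in few wells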. Direction: calcium entry signal: higher = stronger calcium signal after store depletion; entry to resting ratio: higher = more calcium entry relative to resting level; resting calcium signal: higher = higher resting calcium signal. Units: calcium entry signal in fluorescence units; resting calcium signal in fluorescence units. Hit rule: 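Hit if the duplicate-averaged plate z-score for entry over resting signal is under −3; wells with weak total dye signal (Fmax z < −2) or more than 5 off-targets removed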. Meaning of the calls: active = strongly reduced calcium entry; inactive = no strong reduction.
The deposit covers about 23,000 reagents; this is an unselected part of those with a known target gene and a result. Of all reagents, 75 (0.33%) got an active call. 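Raw plate signals without normalisation; calls rest on plate z-scores that were not deposited; ratio present for only 364 wells.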 Entries without a mark were called inactive. A plus sign joins genes that one reagent is predicted to hit. The record does not give: the dose of the treatment.

For CG11983 [DRSC14458], what does the deposit list?
calcium entry signal, replicate 1: 4.91e7; calcium entry signal, replicate 2: 3.93e7; resting calcium signal, replicate 1: 2.26e7; resting calcium signal, replicate 2: 1.77e7

How did the screen score NetA (Netrin-A) [DRSC20261]?
calcium entry signal, replicate 1: 3.50e7; calcium entry signal, replicate 2: 3.34e7; resting calcium signal, replicate 1: 1.78e7; resting calcium signal, replicate 2: 1.52e7

With CG12310 [DRSC09878], how do the results read?
calcium entry signal, replicate 1: 3.65e7; calcium entry signal, replicate 2: 6.93e7; resting calcium signal, replicate 1: 1.80e7; resting calcium signal, replicate 2: 2.32e7

With RpS17 (Ribosomal protein S17) [DRSC11271], what was measured?
calcium entry signal, replicate 1: 8.70e6; calcium entry signal, replicate 2: 9.87e6; resting calcium signal, replicate 1: 6.73e6; resting calcium signal, replicate 2: 6.84e6

For Su(dx) (Suppressor of deltex) [DRSC00791], how do the results read?
calcium entry signal, replicate 1: 3.99e7; resting calcium signal, replicate 1: 2.50e7

Which result is listed for CG13339 [DRSC06373]?
calcium entry signal, replicate 1: 3.33e7; calcium entry signal, replicate 2: 5.16e7; resting calcium signal, replicate 1: 1.74e7; resting calcium signal, replicate 2: 2.08e7

For Dhps (Deoxyhypusine synthase) [DRSC10948], what does the deposit list?
calcium entry signal, replicate 1: 3.14e7; calcium entry signal, replicate 2: 3.16e7; resting calcium signal, replicate 1: 1.52e7; resting calcium signal, replicate 2: 1.44e7

With CG17186 [DRSC15180], what was measured?
calcium entry signal, replicate 1: 4.43e7; calcium entry signal, replicate 2: 4.06e7; resting calcium signal, replicate 1: 4.61e7; resting calcium signal, replicate 2: 1.70e7

For bocks (bocksbeutel) [DRSC16489], what does the deposit list?
calcium entry signal, replicate 1: 3.07e7; calcium entry signal, replicate 2: 4.69e7; resting calcium signal, replicate 1: 1.36e7; resting calcium signal, replicate 2: 1.96e7

With CG18273 [DRSC18150], how do the results read?
calcium entry signal, replicate 1: 2.32e7; calcium entry signal, replicate 2: 2.83e7; entry to resting ratio: 1.9; resting calcium signal, replicate 1: 1.21e7; resting calcium signal, replicate 2: 1.22e7

What did the screen give for CG18273 [DRSC18505]?
calcium entry signal, replicate 1: 2.97e7; calcium entry signal, replicate 2: 3.25e7; resting calcium signal, replicate 1: 1.75e7; resting calcium signal, replicate 2: 1.71e7

With CG16719 [DRSC10222], what was measured?
calcium entry signal, replicate 1: 5.35e7; calcium entry signal, replicate 2: 4.22e7; resting calcium signal, replicate 1: 3.34e7; resting calcium signal, replicate 2: 1.73e7

What did the screen give for Syx13 (Syntaxin 13) [DRSC09836]?
calcium entry signal, replicate 1: 3.01e7; calcium entry signal, replicate 2: 4.15e7; resting calcium signal, replicate 1: 1.68e7; resting calcium signal, replicate 2: 1.94e7

With Pxd (Peroxidase) [DRSC16805], what does the deposit list?
calcium entry signal, replicate 1: 2.87e7; calcium entry signal, replicate 2: 4.39e7; resting calcium signal, replicate 1: 1.38e7; resting calcium signal, replicate 2: 5.40e7

What is on record for Fim (Fimbrin) [DRSC20243]?
calcium entry signal, replicate 1: 2.91e7; calcium entry signal, replicate 2: 3.23e7; resting calcium signal, replicate 1: 1.40e7; resting calcium signal, replicate 2: 1.51e7

For Ilp6 (Insulin-like peptide 6) [DRSC17906], how do the results read?
calcium entry signal, replicate 1: 4.48e7; calcium entry signal, replicate 2: 4.10e7; entry to resting ratio: 2.1; resting calcium signal, replicate 1: 2.14e7; resting calcium signal, replicate 2: 1.78e7

2 consecutive entries from above:
bocks (bocksbeutel) [DRSC16489] | calcium entry signal, replicate 1: 3.07e7; calcium entry signal, replicate 2: 4.69e7; resting calcium signal, replicate 1: 1.36e7; resting calcium signal, replicate 2: 1.96e7
CG18273 [DRSC18150] | calcium entry signal, replicate 1: 2.32e7; calcium entry signal, replicate 2: 2.83e7; entry to resting ratio: 1.9; resting calcium signal, replicate 1: 1.21e7; resting calcium signal, replicate 2: 1.22e7

The results go on:
For nac (neuronally altered carbohydrate) [DRSC16520], how do the results read?
calcium entry signal, replicate 1: 4.64e7; calcium entry signal, replicate 2: 3.37e7; resting calcium signal, replicate 1: 2.08e7; resting calcium signal, replicate 2: 1.74e7

What is on record for CG42383 [DRSC21733]?
calcium entry signal, replicate 1: 3.08e7; calcium entry signal, replicate 2: 2.99e7; resting calcium signal, replicate 1: 1.67e7; resting calcium signal, replicate 2: 1.43e7

What is on record for ap (apterous) [DRSC04917]?
calcium entry signal, replicate 1: 3.44e7; resting calcium signal, replicate 1: 1.75e7

Which result is listed for BomBc2 (Bomanin Bicipital 2) [DRSC06502]?
calcium entry signal, replicate 1: 4.93e7; calcium entry signal, replicate 2: 5.28e7; resting calcium signal, replicate 1: 2.08e7; resting calcium signal, replicate 2: 2.36e7

With PheRS-m (Phenylalanyl-tRNA synthetase, mitochondrial) [DRSC05915], what was measured?
calcium entry signal, replicate 1: 3.78e7; calcium entry signal, replicate 2: 3.60e7; resting calcium signal, replicate 1: 1.61e7; resting calcium signal, replicate 2: 1.71e7

What did the screen give for CG43755 [DRSC00012]?
calcium entry signal, replicate 1: 3.29e7; calcium entry signal, replicate 2: 3.12e7; resting calcium signal, replicate 1: 1.59e7; resting calcium signal, replicate 2: 1.47e7

For CG5567 [DRSC10517], what was measured?
calcium entry signal, replicate 1: 4.22e7; calcium entry signal, replicate 2: 4.25e7; resting calcium signal, replicate 1: 1.95e7; resting calcium signal, replicate 2: 3.00e7

With CG32640 + CG32641 [DRSC22885], how do the results read?
calcium entry signal, replicate 1: 4.20e7; calcium entry signal, replicate 2: 3.70e7; resting calcium signal, replicate 1: 2.42e7; resting calcium signal, replicate 2: 1.67e7

For CG42703 [DRSC03973], how do the results read?
calcium entry signal, replicate 1: 3.76e7; calcium entry signal, replicate 2: 4.09e7; resting calcium signal, replicate 1: 1.58e7; resting calcium signal, replicate 2: 4.13e7

Which result is listed for EMC3 (ER membrane protein complex subunit 3) [DRSC02989]?
calcium entry signal, replicate 1: 2.01e7; calcium entry signal, replicate 2: 3.75e7; resting calcium signal, replicate 1: 9.84e6; resting calcium signal, replicate 2: 1.61e7

What did the screen give for hdm (hold'em) [DRSC18013]?
calcium entry signal, replicate 1: 2.31e7; calcium entry signal, replicate 2: 3.48e7; resting calcium signal, replicate 1: 1.20e7; resting calcium signal, replicate 2: 1.62e7
